Drawing on paper PMC4756533, this text covers binding for one substance.

Protein sequences, listed by entry. Tags and fused reporters are not part of them.
UniProt Q92731: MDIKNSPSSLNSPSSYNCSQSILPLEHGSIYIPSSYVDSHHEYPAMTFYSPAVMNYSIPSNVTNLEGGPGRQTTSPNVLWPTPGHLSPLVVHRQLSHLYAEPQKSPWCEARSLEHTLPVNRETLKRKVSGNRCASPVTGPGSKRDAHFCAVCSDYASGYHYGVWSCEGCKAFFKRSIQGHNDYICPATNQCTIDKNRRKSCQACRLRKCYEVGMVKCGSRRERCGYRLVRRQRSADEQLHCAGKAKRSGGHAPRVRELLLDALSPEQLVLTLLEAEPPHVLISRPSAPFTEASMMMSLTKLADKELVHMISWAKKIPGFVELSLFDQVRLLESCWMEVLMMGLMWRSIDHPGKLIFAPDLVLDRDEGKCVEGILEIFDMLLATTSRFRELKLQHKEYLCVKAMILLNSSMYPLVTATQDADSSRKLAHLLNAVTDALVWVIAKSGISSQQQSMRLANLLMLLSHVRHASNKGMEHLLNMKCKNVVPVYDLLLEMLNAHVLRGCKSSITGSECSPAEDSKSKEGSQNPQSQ
UniProt Q13569: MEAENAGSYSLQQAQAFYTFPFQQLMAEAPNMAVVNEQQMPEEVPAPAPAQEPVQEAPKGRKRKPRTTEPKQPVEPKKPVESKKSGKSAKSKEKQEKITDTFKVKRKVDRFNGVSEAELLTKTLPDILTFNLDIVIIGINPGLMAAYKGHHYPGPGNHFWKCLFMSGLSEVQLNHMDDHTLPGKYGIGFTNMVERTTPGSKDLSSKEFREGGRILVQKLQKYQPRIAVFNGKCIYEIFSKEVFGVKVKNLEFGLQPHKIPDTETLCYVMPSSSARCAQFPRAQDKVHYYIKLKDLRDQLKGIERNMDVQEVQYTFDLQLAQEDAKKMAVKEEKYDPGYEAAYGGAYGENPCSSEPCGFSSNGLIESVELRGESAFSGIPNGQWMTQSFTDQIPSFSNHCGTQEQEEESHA

Results are given in words; binding and its absence hold for the method and conditions named. For some assays here: In cells and extracts the contact can be indirect. Some results given as binding are weak or reduced against the parent protein; the word gives no strength.

Test [1] deals with GST-tagged ERβ (oestrogen receptor beta coupled to glutathion-S-transferase) (human) (UniProt Q92731). The test can be described thus: far-Western, overlay or dot blot; purified GST-ERβ resolved by SDS-PAGE, on nitrocellulose, denatured with 6 M guanidine-HCl and renatured, probed overnight at 4 °C with 7-9 µg recombinant TDG in 20 mM Tris-HCl pH 8, 50 mM NaCl, 10 % glycerol, 0.1 % Tween-20, 2 % skim milk, 1 mM DTT; detected with anti-TDG; both purified.

The target is the same in test [2]. The test can be described thus: pull-down; GST-ERβ or GST from E. coli lysate (0.8 µg/µl total protein in GST buffer: 10 mM Tris-HCl pH 8, 50 mM NaCl, 5 % glycerol, 1 mM DTT) bound to Glutathione Sepharose, 350 ng recombinant hTDG added, 4 °C, 2 h; washes with 80 mM NaCl and once 150-300 mM NaCl; western blot with anti-GST and anti-TDG; four experiments quantified; only the binder purified. A general note: Immunoblotting shows a protein as a band on a membrane.

For the substance “recombinant thymine DNA glycosylase (hTDG) (from UniProt Q13569 1-410) (enzyme)”, the binding entry in test [1] and in test [2] was “binds” each time.
